This passage reports binding signal results from paper PMC7819943, “Rice protein-binding microarrays: a tool to detect cis-acting elements near promoter regions in rice”.

Amino acid sequences for entries named in this document (tags omitted).
UniProt Q0JBA9, entry or part of it: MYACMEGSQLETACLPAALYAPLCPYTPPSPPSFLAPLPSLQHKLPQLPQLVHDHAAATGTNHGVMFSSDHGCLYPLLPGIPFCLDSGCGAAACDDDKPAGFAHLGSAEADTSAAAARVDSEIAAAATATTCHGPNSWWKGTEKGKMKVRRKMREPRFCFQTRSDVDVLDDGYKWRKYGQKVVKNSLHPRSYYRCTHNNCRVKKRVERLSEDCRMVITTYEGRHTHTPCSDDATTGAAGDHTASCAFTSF

The list shows a part of the results.

In the assay the target is OsWRKY34 (Oryza sativa, UniProt Q0JBA9 1-250). The experiment in a line: protein-binding microarray (RPBM); PBS, 2% BSA, 51.3 ng/ul salmon testes DNA, 50 uM zinc acetate, 200 nM TF, 25 C, 1 h; high values mean tight binding. As to conditions: protein: recombinant; tags: N-terminal polyhistidine and DsRed monomer fusion (pET32a); label: CyDye5-dUTP incorporated in the synthesized complementary strand; 3' TTTTT single-stranded linker to array surface; dsDNA, one strand shown. The method, boiled down:
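Transcription factors were each fused at the N-terminus to a polyhistidine tag plus DsRed and expressed in E. coli BL21-CodonPlus before Ni–NTA purification. Binding to a double-stranded custom Agilent array was carried out with 200 nM protein at 25 °C for 1 h in PBS, 2% BSA, salmon testes DNA and 50 µM zinc acetate. The binding signal is per-feature fluorescence intensity, in arbitrary units, on an Axon 4000B scanner.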
“ACTCGTTGACCAAAGGGAGTGGAGTTTGAAAGGGTGGGAGCGGAGTCACCTAGTGCAG”: the binding signal was 14600 fluorescence intensity (a.u.).
With “TGCTTCTTATTAAGAAATATTGTGCAGGTTTTTCGTCTTTCGGAGTCACCTAGTGCAG” the figure was 9660 fluorescence intensity (a.u.); with “GGTGTGGTGGTGGAGTCGTAAATGCATGACTAAGTGTTATCGGAGTCACCTAGTGCAG”, 10900 fluorescence intensity (a.u.).
For the sequence “CCCCTCTCTCTCTATCTCTCTCTCGCCTTTTGCACCATTACGGAGTCACCTAGTGCAG”, the binding signal is 9480 fluorescence intensity (a.u.).
Turning to “ATGACAGCCTTGGTCCATTGACATTTCAGCCATTATATATCGGAGTCACCTAGTGCAG”, the binding signal is 8340 fluorescence intensity (a.u.).
“TCCTATGACTCGGTTTACTTTGATGATTACATATTTTCCTCGGAGTCACCTAGTGCAG”: the binding signal was 9530 fluorescence intensity (a.u.).
On to “TTGTTTCTGGTTTCAATACAAACTTTTTTCCTCTAAACTTCGGAGTCACCTAGTGCAG”, for which the binding signal is 8340 fluorescence intensity (a.u.).
In the case of “CCCCTGGTCGAATCTCCACTCTCGGGGAGGGGTCTCCACTCGGAGTCACCTAGTGCAG”, the binding signal was 9630 fluorescence intensity (a.u.).
For “GGGAGAACGGCGCGTTCTGGGCCCCACCCTGCAGCGACTCCGGAGTCACCTAGTGCAG”, the binding signal was 8340 fluorescence intensity (a.u.).
For “GCCGCACAGCTTGCCTTCCTCGTCGTCTCGTCTCCTTCAGCGGAGTCACCTAGTGCAG”, the binding signal is 8730 fluorescence intensity (a.u.).
Turning to “ACTTTTTTCTCCTGGGTTAGTATCGTGTTAAAGTTTTTTTCGGAGTCACCTAGTGCAG”, the binding signal was 10700 fluorescence intensity (a.u.).
For the sequence “TGGACTTCCTCATCACCAAGCCGCAGCCGCCACCGCCGCTCGGAGTCACCTAGTGCAG”, the binding signal is 8040 fluorescence intensity (a.u.).
With “TGTCATATTTCTCGCATCGATCCTCAACATATGCATGACACGGAGTCACCTAGTGCAG” the figure was 9580 fluorescence intensity (a.u.); with “GTTTTATTTCGGATTATTTTTTTAATCATTTTACTTTGTACGGAGTCACCTAGTGCAG”, 9740 fluorescence intensity (a.u.); with “TGTCATACACACATTACGTCTTGGAGTCCGTGCTGCAGCTCGGAGTCACCTAGTGCAG”, 11500 fluorescence intensity (a.u.).
For “GCCGGGGTGACGTCACCATCATCACTCCATTATTGCTGCGCGGAGTCACCTAGTGCAG”, the binding signal was 9750 fluorescence intensity (a.u.).
As to “CTGTTATATGGCCCTGCTACTGCTCTTATTGCTGCTATTACGGAGTCACCTAGTGCAG”, the binding signal was 9280 fluorescence intensity (a.u.).
Take “AATTAACGGTCTTAGATAGTTTTACCTTGGTTATCTTCTCCGGAGTCACCTAGTGCAG”: the binding signal is 8210 fluorescence intensity (a.u.).
Regarding “AAGAGATTGTTAAAATGACTTTATTACATTATTTAATAACCGGAGTCACCTAGTGCAG”, the binding signal is 9950 fluorescence intensity (a.u.).
Consider “TTCCCTTGTGTTTTTTGCTGACTGGTTGTGCTCTTTAATTCGGAGTCACCTAGTGCAG”, for which the binding signal was 8940 fluorescence intensity (a.u.).
As to “CCTGCCCGGTGTGCTGTGACTTGCCGTTATCGTCACCGTTCGGAGTCACCTAGTGCAG”, the binding signal is 10200 fluorescence intensity (a.u.).
The value for “GCATGAGGCCCAGTTTCTTCCTCTCTTCACTCTCTCTCTTCGGAGTCACCTAGTGCAG” was 8350 fluorescence intensity (a.u.); that for “GGGAGTGAGTATGACTGTATGACATGTGGGGTTTATTTTTCGGAGTCACCTAGTGCAG” was 12500 fluorescence intensity (a.u.).
Take “CTTCACTCCGGAGTCTCTCGTCCTCTCGGGCCACCCACCACGGAGTCACCTAGTGCAG”: the binding signal was 8160 fluorescence intensity (a.u.).
With “ATATTATTTTACTCGCTCTAATCCTACTATTTTCTTTTACCGGAGTCACCTAGTGCAG” the figure was 8030 fluorescence intensity (a.u.); with “TTCTTATCTATCACTCGATTTTCTCTCTCAATTTTACATTCGGAGTCACCTAGTGCAG”, 9960 fluorescence intensity (a.u.).
With “GTTTTTTTTCTCTATGTCCCTAGCTTCGCTTTCCTTCTTTCGGAGTCACCTAGTGCAG” the figure was 11900 fluorescence intensity (a.u.).
In the case of “TCACGCACGCCAGTTGTCACGCCACCCACTTTGCGCCATGCGGAGTCACCTAGTGCAG”, the binding signal was 8640 fluorescence intensity (a.u.).
Regarding “TTATTACAGTGTTTTACTCCTACTACTACTTACTTCTCTTCGGAGTCACCTAGTGCAG”, the binding signal was 10100 fluorescence intensity (a.u.).
On to “GCTCCTCACTTCGCTGTTTTTTTTTTTGGGTTTGTTCGGGCGGAGTCACCTAGTGCAG”, for which the binding signal was 11200 fluorescence intensity (a.u.).
Take “CCGCCTCGCCTCGCCTCGCTGCCTGCGCTTCACAAATCACCGGAGTCACCTAGTGCAG”: the binding signal is 10500 fluorescence intensity (a.u.).
The value for “ATCATGTCCTTTTTGACAACCTACTTCTTCAGTTACATCGCGGAGTCACCTAGTGCAG” was 8690 fluorescence intensity (a.u.); that for “ACGTGGGCCTCACATGTCATACTATCTACGTCATCTCCTACGGAGTCACCTAGTGCAG” was 9510 fluorescence intensity (a.u.); that for “AATCATACTTCTCGAGGTTTGTTTCAGGTTAAACACAATACGGAGTCACCTAGTGCAG” was 8720 fluorescence intensity (a.u.).
As to “AATATCATTATCATTGTTGTTGTTGACTCCTCTTTCATGTCGGAGTCACCTAGTGCAG”, the binding signal was 9480 fluorescence intensity (a.u.).
In the case of “GCTCTCCGTCGTGTTCCTCTACTTCTTCTACGTGATTTCCCGGAGTCACCTAGTGCAG”, the binding signal is 11700 fluorescence intensity (a.u.).
Take “AGTGTTAGTTGACTGTTAGTCAAAGGTTAGTTTTTTTCGTCGGAGTCACCTAGTGCAG”: the binding signal was 9180 fluorescence intensity (a.u.).
With “ATCTCCTTTTCCGTTGCAAAGGCACTGAGTTTATATTTCGCGGAGTCACCTAGTGCAG”, the binding signal was 9020 fluorescence intensity (a.u.).
Regarding “CTTTGATTTGGCATCAATTTTTTTCATGATCTTTGCTTCTCGGAGTCACCTAGTGCAG”, the binding signal was 9620 fluorescence intensity (a.u.).
With “ACACACACCGCGTCTTGGAGTCCGTGCTACAGCTGACTATCGGAGTCACCTAGTGCAG” the figure was 8700 fluorescence intensity (a.u.); with “CTAGACCCTTTTGAGTTAACAACACATTCACTGTTTTTCACGGAGTCACCTAGTGCAG”, 8830 fluorescence intensity (a.u.).
“GGTGGGAGTATTAGATGGGGTCTAATCGAGTATTAGGGTGCGGAGTCACCTAGTGCAG”: the binding signal is 8090 fluorescence intensity (a.u.).
